Results from the supplement of paper PMC10849652.
The other results are listed elsewhere or left out.

Chains of the proteins cited; added tags and fusions are not shown. Lines headed by an entry give the natural chain unless they say otherwise; changes in a name come on top.
UniProt Q9H211: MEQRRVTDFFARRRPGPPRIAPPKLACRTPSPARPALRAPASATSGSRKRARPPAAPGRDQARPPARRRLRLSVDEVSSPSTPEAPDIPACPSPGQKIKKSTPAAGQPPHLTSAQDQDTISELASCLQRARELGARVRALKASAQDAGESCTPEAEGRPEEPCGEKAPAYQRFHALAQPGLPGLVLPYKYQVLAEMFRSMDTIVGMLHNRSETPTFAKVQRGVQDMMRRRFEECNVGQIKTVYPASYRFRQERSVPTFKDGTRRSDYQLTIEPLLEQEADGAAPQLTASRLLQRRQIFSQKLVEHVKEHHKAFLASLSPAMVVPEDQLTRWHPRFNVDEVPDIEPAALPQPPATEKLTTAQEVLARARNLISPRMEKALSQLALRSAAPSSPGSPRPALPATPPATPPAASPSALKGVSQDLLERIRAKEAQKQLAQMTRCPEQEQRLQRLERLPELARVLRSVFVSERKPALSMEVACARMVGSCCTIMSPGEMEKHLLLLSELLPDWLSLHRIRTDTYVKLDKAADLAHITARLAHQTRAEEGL
UniProt Q9UIB8: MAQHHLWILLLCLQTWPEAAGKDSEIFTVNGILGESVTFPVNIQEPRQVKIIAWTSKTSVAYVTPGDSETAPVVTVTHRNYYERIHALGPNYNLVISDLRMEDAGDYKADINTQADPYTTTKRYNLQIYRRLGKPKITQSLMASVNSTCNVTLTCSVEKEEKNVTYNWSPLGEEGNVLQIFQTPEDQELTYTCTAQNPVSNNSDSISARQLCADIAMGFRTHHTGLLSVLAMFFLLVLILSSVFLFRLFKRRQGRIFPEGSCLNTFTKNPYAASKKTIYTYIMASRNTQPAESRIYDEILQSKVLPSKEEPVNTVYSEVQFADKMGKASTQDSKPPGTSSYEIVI
UniProt P53567: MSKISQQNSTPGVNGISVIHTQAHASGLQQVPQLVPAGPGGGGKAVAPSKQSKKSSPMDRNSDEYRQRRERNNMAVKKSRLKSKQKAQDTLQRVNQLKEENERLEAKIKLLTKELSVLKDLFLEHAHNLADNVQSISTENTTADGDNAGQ
UniProt Q6ZU80: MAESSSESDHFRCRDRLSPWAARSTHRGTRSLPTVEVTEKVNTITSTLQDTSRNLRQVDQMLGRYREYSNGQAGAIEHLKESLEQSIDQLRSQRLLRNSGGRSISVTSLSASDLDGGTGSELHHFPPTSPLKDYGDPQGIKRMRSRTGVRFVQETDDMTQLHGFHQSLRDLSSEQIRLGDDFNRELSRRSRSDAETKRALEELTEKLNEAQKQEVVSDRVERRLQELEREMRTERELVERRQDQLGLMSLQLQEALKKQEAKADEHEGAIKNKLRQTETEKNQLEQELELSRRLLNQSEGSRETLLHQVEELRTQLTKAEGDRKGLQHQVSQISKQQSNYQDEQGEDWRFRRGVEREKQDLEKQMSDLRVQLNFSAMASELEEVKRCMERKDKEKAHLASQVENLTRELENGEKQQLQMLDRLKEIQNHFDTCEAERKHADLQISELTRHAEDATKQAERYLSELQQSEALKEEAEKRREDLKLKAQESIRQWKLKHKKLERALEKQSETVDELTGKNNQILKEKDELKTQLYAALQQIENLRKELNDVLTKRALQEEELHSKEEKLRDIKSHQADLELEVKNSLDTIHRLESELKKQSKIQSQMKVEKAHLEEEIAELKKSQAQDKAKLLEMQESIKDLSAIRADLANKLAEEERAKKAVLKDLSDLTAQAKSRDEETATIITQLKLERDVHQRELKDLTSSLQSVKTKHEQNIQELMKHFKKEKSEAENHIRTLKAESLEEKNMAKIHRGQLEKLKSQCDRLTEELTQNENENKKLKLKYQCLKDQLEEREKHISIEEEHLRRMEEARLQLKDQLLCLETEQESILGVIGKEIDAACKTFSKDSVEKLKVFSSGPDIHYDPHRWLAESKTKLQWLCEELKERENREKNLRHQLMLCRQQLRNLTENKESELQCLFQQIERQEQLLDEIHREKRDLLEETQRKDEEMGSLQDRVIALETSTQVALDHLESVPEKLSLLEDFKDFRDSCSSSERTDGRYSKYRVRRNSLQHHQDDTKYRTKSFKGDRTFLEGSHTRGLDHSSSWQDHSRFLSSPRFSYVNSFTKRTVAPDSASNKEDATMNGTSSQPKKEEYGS
UniProt P14209: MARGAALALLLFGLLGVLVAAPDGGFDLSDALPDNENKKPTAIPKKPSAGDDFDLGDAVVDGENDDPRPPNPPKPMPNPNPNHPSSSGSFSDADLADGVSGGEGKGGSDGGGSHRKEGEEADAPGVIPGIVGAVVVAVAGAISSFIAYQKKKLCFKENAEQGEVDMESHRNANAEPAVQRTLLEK
UniProt O43822: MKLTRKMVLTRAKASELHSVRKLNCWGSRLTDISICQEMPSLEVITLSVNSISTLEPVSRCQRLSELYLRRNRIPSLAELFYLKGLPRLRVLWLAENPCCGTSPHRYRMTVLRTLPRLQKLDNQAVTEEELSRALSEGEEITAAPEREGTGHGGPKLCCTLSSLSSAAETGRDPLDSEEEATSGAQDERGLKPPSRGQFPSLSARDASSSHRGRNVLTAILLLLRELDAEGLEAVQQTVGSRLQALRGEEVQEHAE
UniProt Q9NSP4: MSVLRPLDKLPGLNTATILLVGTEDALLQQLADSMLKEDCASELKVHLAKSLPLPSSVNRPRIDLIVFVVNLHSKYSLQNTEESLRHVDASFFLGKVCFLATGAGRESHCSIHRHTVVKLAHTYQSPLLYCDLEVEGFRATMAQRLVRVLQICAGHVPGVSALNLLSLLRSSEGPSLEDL
UniProt Q8N5B7: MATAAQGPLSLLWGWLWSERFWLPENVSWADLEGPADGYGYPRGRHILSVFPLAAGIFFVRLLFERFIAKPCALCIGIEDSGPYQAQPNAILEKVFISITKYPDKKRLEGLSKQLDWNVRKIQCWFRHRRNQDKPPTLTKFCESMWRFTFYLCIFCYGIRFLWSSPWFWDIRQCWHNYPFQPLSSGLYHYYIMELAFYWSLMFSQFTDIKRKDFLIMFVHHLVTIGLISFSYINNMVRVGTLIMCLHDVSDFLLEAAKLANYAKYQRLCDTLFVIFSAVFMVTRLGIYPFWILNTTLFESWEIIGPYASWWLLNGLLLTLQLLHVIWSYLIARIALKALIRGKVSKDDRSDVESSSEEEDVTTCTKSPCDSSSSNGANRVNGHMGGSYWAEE
UniProt A8MTT3: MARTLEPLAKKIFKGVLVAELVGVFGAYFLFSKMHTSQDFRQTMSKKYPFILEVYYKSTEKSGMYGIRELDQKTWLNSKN
UniProt Q9HC77: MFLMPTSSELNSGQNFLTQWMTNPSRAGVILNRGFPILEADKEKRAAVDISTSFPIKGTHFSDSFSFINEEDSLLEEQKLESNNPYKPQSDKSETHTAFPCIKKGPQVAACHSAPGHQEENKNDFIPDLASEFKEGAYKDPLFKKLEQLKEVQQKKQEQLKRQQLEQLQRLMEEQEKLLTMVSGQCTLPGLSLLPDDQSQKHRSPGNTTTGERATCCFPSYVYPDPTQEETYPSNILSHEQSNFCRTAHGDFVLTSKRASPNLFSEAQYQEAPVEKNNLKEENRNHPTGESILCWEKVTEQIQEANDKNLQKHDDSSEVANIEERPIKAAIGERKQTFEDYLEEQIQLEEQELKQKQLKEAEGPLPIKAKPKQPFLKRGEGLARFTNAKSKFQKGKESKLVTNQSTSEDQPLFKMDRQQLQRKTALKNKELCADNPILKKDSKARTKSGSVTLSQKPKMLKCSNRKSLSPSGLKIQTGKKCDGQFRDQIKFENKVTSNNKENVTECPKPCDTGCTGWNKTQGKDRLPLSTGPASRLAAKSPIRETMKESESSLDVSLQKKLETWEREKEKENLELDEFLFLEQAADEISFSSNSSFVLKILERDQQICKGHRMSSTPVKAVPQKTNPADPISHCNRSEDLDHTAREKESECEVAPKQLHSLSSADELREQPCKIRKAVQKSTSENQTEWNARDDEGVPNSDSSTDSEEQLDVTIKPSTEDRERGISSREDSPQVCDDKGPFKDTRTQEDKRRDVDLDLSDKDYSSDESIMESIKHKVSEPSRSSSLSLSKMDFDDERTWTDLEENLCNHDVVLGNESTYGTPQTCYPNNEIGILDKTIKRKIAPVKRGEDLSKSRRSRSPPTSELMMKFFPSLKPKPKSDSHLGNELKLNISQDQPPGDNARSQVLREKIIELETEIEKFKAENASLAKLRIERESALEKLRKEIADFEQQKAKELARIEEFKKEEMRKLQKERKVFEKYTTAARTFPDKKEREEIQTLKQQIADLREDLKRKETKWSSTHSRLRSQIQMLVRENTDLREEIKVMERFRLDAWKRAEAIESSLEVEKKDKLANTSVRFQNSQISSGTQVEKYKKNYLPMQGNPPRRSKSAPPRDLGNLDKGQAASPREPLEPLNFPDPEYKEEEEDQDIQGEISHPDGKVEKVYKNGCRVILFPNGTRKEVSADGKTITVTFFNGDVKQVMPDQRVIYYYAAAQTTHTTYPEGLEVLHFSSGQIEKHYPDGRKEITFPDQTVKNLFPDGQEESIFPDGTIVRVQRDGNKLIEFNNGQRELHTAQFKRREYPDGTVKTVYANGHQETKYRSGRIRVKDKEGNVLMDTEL
UniProt P46527, whole entry, looked up: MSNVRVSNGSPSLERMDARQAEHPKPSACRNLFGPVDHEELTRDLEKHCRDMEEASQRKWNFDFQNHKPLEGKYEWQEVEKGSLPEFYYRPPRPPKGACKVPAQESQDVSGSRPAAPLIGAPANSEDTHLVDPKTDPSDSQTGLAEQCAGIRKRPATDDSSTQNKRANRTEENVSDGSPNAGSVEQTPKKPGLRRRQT
UniProt Q9BYV8: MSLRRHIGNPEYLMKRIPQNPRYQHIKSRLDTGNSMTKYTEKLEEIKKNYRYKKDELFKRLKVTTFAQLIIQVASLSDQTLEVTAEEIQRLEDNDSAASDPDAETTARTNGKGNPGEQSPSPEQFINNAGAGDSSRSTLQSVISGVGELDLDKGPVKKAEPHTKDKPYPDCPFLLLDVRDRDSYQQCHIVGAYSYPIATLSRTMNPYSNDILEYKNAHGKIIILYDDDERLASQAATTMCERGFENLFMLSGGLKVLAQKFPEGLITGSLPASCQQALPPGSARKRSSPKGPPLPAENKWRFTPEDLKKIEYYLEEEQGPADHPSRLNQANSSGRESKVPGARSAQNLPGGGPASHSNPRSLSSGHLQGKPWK

Assays:
Assay in all cases: log2 fold change, soluble protein after heating vs DMSO (PISA); higher = thermal stabilisation; K562 lysate, 10 uM; active = over 0.2 and 3.5 SD of the protein, either way, in both replicates (recomputed)
[1] = compound: C=CC(=O)N1CCC[C@@H](n2nc(-c3ccc(Oc4ccccc4)cc3)c3c(N)ncnc32)C1 [ibrutinib]
Outline: (§1)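 Values give the log-two fold change in thermal stability against solvent controls, from duplicates. Crude K562 extract at 1 mg/mL protein, made by dounce homogenisation in PBS pH 7.4 with 1 mM MgCl2, was treated with 10 μM compound for 30 min. After 3 min heating across 48°C-58°C, aliquots were pooled, adjusted to 0.5% NP-40 at 4°C and centrifuged at 21,000xg for 90 min. The supernatant was measured by TMTpro 16plex LC-MS/MS with channel sums equalised.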

[2] = compound: CC(C)(C)Cn1c(N)nc2ccc(-c3[nH]c(C(C)(C)C)nc3-c3ccc(F)cc3)nc21 [ralimetinib]
Outline: as §1

[3] = compound: CC(C)(O)CC(=O)NCCn1ccc2ncnc(Nc3ccc(Oc4cccc(C(F)(F)F)c4)c(Cl)c3)c21
Outline: as §1

[4] = compound: CC(C)C1=C2N=C(C=C(N2N=C1)NCC3=CC=CC=C3)NCCCCCCN
Outline: as §1

[5] = compound: CC1=C(C2=C(C=C1)C(=O)C3=CC=CC=C3N2CCCN)C
Outline: as §1

[6] = compound: CC1=C(C=C(C=C1)NC(=O)C2=CC(=CC=C2)C(C)(C)C#N)NC3=CC4=C(C=C3)N=CN(C4=O)C
Outline: as §1

[7] = compound: CC1=C(C=C(C=C1)NC(=O)C2=CC(=CC=C2)N(C)C)NC(=O)C3=CC=C(C=C3)O
Outline: as §1

[8] = compound: CCN(CCCOc1ccc2c(Nc3cc(CC(=O)Nc4cccc(F)c4)[nH]n3)ncnc2c1)CCOP(=O)(O)O [barasertib]
Outline: as §1

[9] = compound: CC[C@@H]1C(=O)N(C)c2cnc(Nc3ccc(C(=O)NC4CCN(C)CC4)cc3OC)nc2N1C1CCCC1
Outline: as §1

[10] = compound: CCn1c(C(=O)N(C2CC2)C2CC2)cc2c3c(ncn3C)c(Nc3cc(C)n(C)n3)nc21
Outline: as §1

[11] = compound: CCn1cc(-c2ccnc3[nH]c(-c4cccc(CN(C)C)c4)cc23)c(-c2ccc(NC(=O)N(C)C)cc2)n1
Outline: as §1

[12] = compound: CN1CCC(CNc2ccc3ncc(-c4cccc(OC(F)(F)F)c4)n3n2)CC1
Outline: as §1

[13] = compound: CN1CCN(CCOc2cc(OC3CCOCC3)c3c(Nc4c(Cl)ccc5c4OCO5)ncnc3c2)CC1 [saracatinib]
Outline: as §1

[14] = compound: CN1CCN(c2nc(C3=C(c4c[nH]c5ccccc45)C(=O)NC3=O)c3ccccc3n2)CC1 [sotrastaurin]
Outline: as §1

[15] = compound: CC(=O)c1cnc2ccc(-c3cc(Cl)c(O)c(Cl)c3)nc2c1N[C@H]1CC[C@H](CN(C)C)CC1
Outline: as §1

[16] = compound: CC1=CC=C(C=C1)SC2=C3C=C(SC3=CN=C2)C(=O)N
Outline: as §1

[17] = compound: CCCS(=O)(=O)Nc1ccc(F)c(C(=O)c2c[nH]c3ncc(Cl)cc23)c1F
Outline: as §1

[18] = compound: CC[C@@H]1C(=O)N(C)c2cnc(Nc3ccc(C(=O)N[C@H]4CC[C@H](N5CCN(CC6CC6)CC5)CC4)cc3OC)nc2N1C(C)C [volasertib]
Outline: as §1

[19] = compound: CCCS(=O)(=O)Nc1ccc(F)c(C(=O)c2c[nH]c3ncc(-c4ccc(Cl)cc4)cc23)c1F [vemurafenib]
Outline: as §1

[20] = compound: CC1=C(C(CC(=O)N1)C2=CC=C(C=C2)C(F)(F)F)C(=O)NC3=C(C=C4C(=C3)C=NN4)F
Outline: as §1

Target | log2 fold change [1] | log2 fold change [2] | log2 fold change [3] | log2 fold change [4] | log2 fold change [5] | log2 fold change [6] | log2 fold change [7] | log2 fold change [8] | log2 fold change [9] | log2 fold change [10] | log2 fold change [11] | log2 fold change [12] | log2 fold change [13] | log2 fold change [14] | log2 fold change [15] | log2 fold change [16] | log2 fold change [17] | log2 fold change [18] | log2 fold change [19] | log2 fold change [20]
CDT1 (UniProt Q9H211) | inactive: 0.179 | inactive: 0.011 | inactive: -0.079 | inactive: 0.002 | inactive: -0.104 | inactive: -0.011 | inactive: 0.013 | inactive: 0.019 | inactive: 0.153 | inactive: -0.059 | inactive: -0.004 | inactive: 0.034 | inactive: 0.034 | inactive: -0.042 | – | – | – | – | – | –
CD84 (UniProt Q9UIB8) | inactive: -0.042 | – | – | – | – | – | – | inactive: -0.032 | – | – | inactive: -0.153 | inactive: -0.046 | – | – | – | – | – | – | – | –
CEBPG (UniProt P53567) | inactive: 0.253 | inactive: 0.215 | inactive: 0.02 | – | – | inactive: 0.196 | inactive: -0.074 | inactive: -0.065 | – | inactive: -0.077 | inactive: -0.162 | inactive: 0.021 | – | inactive: -0.05 | inactive: 0.098 | inactive: -0.013 | inactive: 0.149 | inactive: -0.04 | – | –
CEP128 (UniProt Q6ZU80) | inactive: 0.166 | inactive: -0.06 | inactive: -0.001 | – | inactive: 0.078 | – | inactive: -0.03 | inactive: 0.124 | inactive: -0.132 | inactive: 0.375 | active: -1.27 | inactive: 0.369 | inactive: 0.07 | – | – | – | – | – | inactive: -0.025 | –
CD99 (UniProt P14209) | – | inactive: 0.058 | inactive: -0.055 | inactive: -0.011 | inactive: -0.096 | inactive: -0.047 | inactive: -0.07 | – | – | inactive: -0.039 | inactive: -0.01 | inactive: -0.063 | inactive: 0.173 | inactive: -0.089 | inactive: 0.123 | inactive: -0.051 | inactive: 0.103 | inactive: -0.035 | inactive: 0.013 | inactive: 0.033
CDC37 (UniProt K7EKQ2) | – | inactive: 0.007 | inactive: -0.134 | inactive: -0.004 | inactive: -0.027 | inactive: 0.023 | inactive: -0.022 | – | – | inactive: -0.025 | inactive: 0.218 | inactive: 0.081 | inactive: -0.006 | inactive: -0.082 | inactive: 0.155 | inactive: -0.169 | inactive: 0.079 | inactive: 0.007 | inactive: 0.079 | inactive: -0.27
CFAP410 (UniProt O43822) | inactive: 0.018 | inactive: 0.163 | inactive: -0.01 | inactive: 0.048 | – | inactive: -0.004 | inactive: -0.017 | inactive: 0.037 | inactive: -0.015 | inactive: -0.063 | – | – | – | inactive: 0 | – | – | – | – | inactive: -0.016 | inactive: 0.019
CENPM (UniProt Q9NSP4) | inactive: 0.063 | inactive: 0.063 | inactive: -0.09 | inactive: -0.004 | inactive: -0.082 | inactive: 0.295 | inactive: -0.075 | inactive: -0.04 | inactive: 0.116 | inactive: 0.046 | inactive: 0.052 | inactive: 0.037 | inactive: -0.063 | inactive: -0.225 | – | – | – | – | – | inactive: -0.058
CERS5 (UniProt Q8N5B7) | inactive: -0.031 | inactive: 0.034 | inactive: -0.053 | inactive: -0.007 | inactive: 0.029 | inactive: 0.002 | inactive: 0.028 | inactive: -0.005 | inactive: 0.018 | inactive: -0.002 | inactive: -0.05 | inactive: 0.128 | inactive: -0.041 | inactive: 0.095 | inactive: -0.021 | inactive: -0.033 | inactive: 0.091 | inactive: -0.012 | – | –
CEBPZOS (UniProt A8MTT3) | – | inactive: 0.035 | inactive: 0.022 | inactive: -0.047 | inactive: 0.04 | inactive: 0.112 | inactive: -0.032 | – | inactive: -0.048 | inactive: 0.024 | inactive: -0.176 | inactive: 0.041 | inactive: 0.03 | inactive: -0.005 | inactive: 0.02 | inactive: 0.012 | inactive: -0.026 | inactive: -0.007 | inactive: 0.031 | inactive: -0.054
CENPJ (UniProt Q9HC77) | inactive: 0.007 | inactive: 0.008 | inactive: -0.05 | inactive: 0.025 | inactive: 0.032 | inactive: 0.072 | inactive: 0.009 | inactive: 0.019 | inactive: 0.166 | inactive: 0.015 | – | – | inactive: 0.015 | inactive: 0.042 | inactive: 0.025 | inactive: 0.063 | inactive: 0.329 | inactive: -0.103 | inactive: 0.118 | –
CDKN1B (UniProt P46527) | inactive: 0.141 | inactive: 0.037 | inactive: 0.069 | inactive: -0.037 | inactive: -0.053 | inactive: -0.325 | inactive: -0.019 | inactive: -0.032 | inactive: 0.063 | inactive: 0.099 | inactive: 0.118 | inactive: -0.119 | inactive: -0.012 | inactive: 0.015 | inactive: 0.013 | inactive: 0.017 | inactive: 0.004 | inactive: -0.039 | inactive: -0.12 | –
CEP41 (UniProt Q9BYV8) | inactive: 0.014 | – | – | inactive: 0.021 | inactive: 0.095 | inactive: 0.011 | – | inactive: 0.03 | inactive: 0.018 | – | inactive: 0.02 | inactive: -0.009 | inactive: -0.032 | inactive: 0.03 | inactive: 0.045 | inactive: -0.031 | inactive: 0.108 | inactive: -0.023 | inactive: -0.022 | inactive: -0.025

A few values from above.
Value for CD99 (UniProt P14209) under log2 fold change [2]: inactive: 0.058
Value for CDKN1B (UniProt P46527) under log2 fold change [7]: inactive: -0.019
